The source of these data is PMC5021370.

Results are given in words; binding and its absence hold for the method and conditions named. Where a sequence is shown, tags or fusion partners need not be part of it.

For the test, the target named is T1, GST-SPARC (aa 18–303) (UniProt P09486).
T1 sequence: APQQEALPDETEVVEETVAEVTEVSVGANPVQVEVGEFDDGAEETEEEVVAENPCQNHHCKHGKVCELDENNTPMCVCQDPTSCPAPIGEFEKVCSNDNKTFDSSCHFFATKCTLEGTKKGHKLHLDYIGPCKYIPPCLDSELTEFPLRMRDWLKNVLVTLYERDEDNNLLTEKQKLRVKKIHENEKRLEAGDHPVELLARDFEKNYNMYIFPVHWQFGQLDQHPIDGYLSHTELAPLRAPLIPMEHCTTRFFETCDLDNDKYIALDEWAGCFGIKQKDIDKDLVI
The test can be described thus: condition: 2 μg human plasma fibronectin with 10 μg of GST fusion protein; pull-down; 2 μg of rTGFBI or 2 μg human plasma fibronectin incubated with 10 μg of GST fusion protein; pull-down with Glutathione sepharose 4B beads, four washes in GST lysis buffer; Western blot; both purified. On the technique in general: In western blotting, separated proteins are transferred to a membrane and probed.

Regarding human plasma fibronectin, the binding entry was “no binding”.
